# Source: patent publication US10167299B2, “1-(3-aminopropyl) substituted cyclic amine compounds, preparation method therefor, and pharmaceutical compositions and uses thereof” (SHANGHAI INSTITUTE OF MATERIA MEDICA, CHINESE ACADEMY OF …, priority 2013, dated 2019)
# At least one structure is not confirmed: it was looked up by name or label, or the drawing left a doubt.
# Tested on: CCR5 protein
# Assay: Thermal stability of protein test (CPM-assay)
# Assay type: binding
# Settings: thermal stability of CCR5 protein with compound, CPM dye
# Source text: Experimental theory: many cysteines are present in CCR5 protein sequence. Cysteines located in loop region form disulfide bonds to stabilize the tertiary structure of the protein. Some free cysteines in reduced state are located in the transmembrane region. Under excitation by incident light of 387 nm, the combination of free sulfhydryl and fluorescent dye CPM can emit excitation light of 436 nm. […] The free sulfhydryls originally located in the transmembrane region expose and combine with the fluorescent dye. And then the detector will detect changes in signal enhancement. Therefore, the thermal stability of membrane proteins can be determined according to the temperature (Tm) at the midpoint of changes in signal intensity.
# Experimental steps: Upon preliminary purification, the obtained protein solution was transferred into a small concentration tube (100 kd, 500 ul) for concentration (1000 rcf, 12 min, 4° C.). […] 117 μl of purified solution (volume is suitable to make the total volume up to 120 μl), 1 μl fluorescent dye cpm (in-house prepared) and 2 μl of concentrated protein solution (the amount of added protein is 3-5 μg according to the calculated concentration of the protein solution and the concentrated volume) were added to 2 ml Ependorf tube and incubated at room temperature for 20 min. […]
smiles,measurement,value
"Cc1nnc(C(C)C)n1C1CC2CCC(C1)N2CCC(NC(=O)C1CCC(F)(F)CC1)c1cccs1 (stereo not drawn) [Compound 3, 4,4-difluoro-N-[3-[exo-3-(3-isopropyl-5-methyl-4H-1,2,4-triazol-4-yl)-8-azabicyclo[3.2.1]octane-8-yl]-1-(thiophen-2-yl)propyl]cyclohexane-1-carboxamide]",Tm (° C.),67.71 °C
